The record followed here is publication doi:10.1101/467431.

Holding throughout (test): SEC
Background: Size exclusion chromatography separates by hydrodynamic size, large species first.

Experiment [1] concerns the target Sca2 C-terminal fragment, construct Sca_(868-1515) (Rickettsia conorii) (UniProt Q92JF7).
Experiment [2] concerns the target Sca2 construct Sca_(1090-1515) (Rickettsia conorii) (UniProt Q92JF7).
Experiment [3] addresses Sca2 construct Sca_(869-1060) (Rickettsia conorii) (UniProt Q92JF7).

Results are given in words; binding and its absence hold for the method and conditions named.

Consider “Sca2 construct Sca_(421-670) (from UniProt Q92JF7 421-670) (domain or fragment)”, for which the binding entry in experiment [1] is recorded as “no binding”.
Still for that read-out and setting: the result for “Sca2 construct Sca_(34-400) (from UniProt Q92JF7 34-400) (domain or fragment)” reads “no binding”.
Regarding “Sca2 N-terminal fragment, construct Sca_(34-670) (from UniProt Q92JF7 34-670) (domain or fragment)”, the binding result in experiment [2] and in experiment [3] was “no binding” each time.
